Results are given in words; binding and its absence hold for the method and conditions named. Binding seen in cells or lysates may run through a third protein. Some results given as binding are weak or reduced against the parent protein; the word gives no strength.
Biological target: Exo84-HA, Q8IYI6
Experiment: co-IP; HEK293T cells transfected with control or STK38 siRNAs, then with vectors; Exo84-HA immunoprecipitated with anti-HA; basal or EBSS for 90 min; RalB or Beclin1 detected by western blotting
Details: remark: other sources report otherwise

binding	Binder
binds	RalB, P11234 1-206 (protein) MAANKSKGQSSLALHKVIMVGSGGVGKSALTLQFMYDEFVEDYEPTKADSYRKKVVLDGEEVQIDILDTAGQEDYAAIRDNYFRSGEGFLLVFSITEHESFTATAEFREQILRVKAEEDKIPLLVVGNKSDLEERRQVPVEEARSKAEEWGVQYVETSAKTRANVDKVFFDLMREIRTKKMSENKDKNGKKSSKNKKSFKERCCLL
binds	constitutively active RalB G23V, P11234 1-206 (protein) MAANKSKGQSSLALHKVIMVGSVGVGKSALTLQFMYDEFVEDYEPTKADSYRKKVVLDGEEVQIDILDTAGQEDYAAIRDNYFRSGEGFLLVFSITEHESFTATAEFREQILRVKAEEDKIPLLVVGNKSDLEERRQVPVEEARSKAEEWGVQYVETSAKTRANVDKVFFDLMREIRTKKMSENKDKNGKKSSKNKKSFKERCCLL

— article PMC4598746
